The values below come from article PMC8611018, “Apelin-13 in septic shock: effective in supporting hemodynamics in sheep but compromised by enzymatic breakdown in patients” (Scientific Reports, 2021).

Chains of the proteins cited; added tags and fusions are not shown. Lines headed by an entry give the natural chain unless they say otherwise; changes in a name come on top.
UniProt Q9ULZ1: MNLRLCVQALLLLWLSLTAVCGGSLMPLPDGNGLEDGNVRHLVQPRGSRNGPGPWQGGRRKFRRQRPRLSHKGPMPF
UniProt P32121: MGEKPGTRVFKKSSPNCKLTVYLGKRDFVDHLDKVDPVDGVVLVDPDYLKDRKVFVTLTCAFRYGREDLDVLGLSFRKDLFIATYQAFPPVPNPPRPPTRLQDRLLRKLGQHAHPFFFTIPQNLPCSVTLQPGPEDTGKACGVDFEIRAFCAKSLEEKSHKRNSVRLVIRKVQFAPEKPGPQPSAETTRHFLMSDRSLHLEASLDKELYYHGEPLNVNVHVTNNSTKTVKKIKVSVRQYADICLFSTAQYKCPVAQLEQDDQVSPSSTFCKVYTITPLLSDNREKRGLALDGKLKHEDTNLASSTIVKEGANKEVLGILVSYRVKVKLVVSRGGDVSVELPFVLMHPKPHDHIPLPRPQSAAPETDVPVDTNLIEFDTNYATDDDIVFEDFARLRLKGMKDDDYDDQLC

Results are given in words; binding and its absence hold for the method and conditions named. For some of these results: Binding seen in cells or lysates may run through a third protein. Some entries that bind do so weakly or less than the wild type.

Assay [1] has as its target HA epitope-tagged sheep APJ (apelin receptor) (Ovis aries). As to the kind of experiment: radioligand binding; competition: HEK293 cells with surface expression of HA-tagged sheep APJ incubated with 0.2 nM [125I]-(pyr1)APLN-13 and cold APLN-13 or ELA (10^-11 to 10^-5 M), 1 h, room temperature; γ-counter; only the binder purified.
In assay [2] the target is sheep APJ-GFP10 (Ovis aries). As to the kind of experiment: FRET or BRET; BRET2 between sheep APJ-GFP10 and RlucII-β-arrestin2 in transfected HEK293 cells; stimulated with APLN-13 or ELA (10^-5 to 10^-11 M), 37 °C, 30 min; coelenterazine 400A. A general note: In BRET a luciferase serves as donor, and the signal depends on an acceptor being close.

Regarding “human apelin-13 (APLN-13), unlabelled (from UniProt Q9ULZ1 65-77) (peptide)”, the binding result in assay [1] is listed as “binds”.

“RlucII-β-arrestin2 (from UniProt P32121 1-409)”: in assay [2], the binding entry is listed as “binds”.

As for “[125I]-(pyr1)Apelin(APLN)-13 (from UniProt Q9ULZ1 65-77) (peptide)”, in assay [1], the binding result is recorded as “binds”.

B1: human Elabela (ELA) (peptide, UniProt P0DMC3 23-54)
peptide: QRPVNLTMRRKLRKHNCLQRRCMPLHSRVPFP
Turning to B1, in assay [1], the binding entry was “binds”.
